Two molecules from publication doi:10.1101/2021.08.28.457928 can be followed below.

Sequences of proteins named here, by UniProt entry; tags and fusion partners are left off.
UniProt Q13596: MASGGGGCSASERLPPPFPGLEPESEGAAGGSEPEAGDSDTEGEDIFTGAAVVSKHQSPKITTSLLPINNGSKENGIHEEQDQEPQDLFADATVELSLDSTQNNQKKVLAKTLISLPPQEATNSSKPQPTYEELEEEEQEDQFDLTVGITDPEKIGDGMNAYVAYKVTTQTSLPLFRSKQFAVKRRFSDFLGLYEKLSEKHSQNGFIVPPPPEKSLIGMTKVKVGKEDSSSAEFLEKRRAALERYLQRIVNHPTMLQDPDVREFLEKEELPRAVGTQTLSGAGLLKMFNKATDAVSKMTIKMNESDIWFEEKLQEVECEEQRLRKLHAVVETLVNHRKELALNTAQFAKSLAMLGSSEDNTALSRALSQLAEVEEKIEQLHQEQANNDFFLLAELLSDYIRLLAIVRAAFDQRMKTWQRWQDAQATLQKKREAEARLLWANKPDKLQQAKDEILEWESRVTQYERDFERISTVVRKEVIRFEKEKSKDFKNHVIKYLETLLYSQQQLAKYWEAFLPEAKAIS

One test has as its target T1, GFP-SNX17 (UniProt Q15036).
T1 sequence: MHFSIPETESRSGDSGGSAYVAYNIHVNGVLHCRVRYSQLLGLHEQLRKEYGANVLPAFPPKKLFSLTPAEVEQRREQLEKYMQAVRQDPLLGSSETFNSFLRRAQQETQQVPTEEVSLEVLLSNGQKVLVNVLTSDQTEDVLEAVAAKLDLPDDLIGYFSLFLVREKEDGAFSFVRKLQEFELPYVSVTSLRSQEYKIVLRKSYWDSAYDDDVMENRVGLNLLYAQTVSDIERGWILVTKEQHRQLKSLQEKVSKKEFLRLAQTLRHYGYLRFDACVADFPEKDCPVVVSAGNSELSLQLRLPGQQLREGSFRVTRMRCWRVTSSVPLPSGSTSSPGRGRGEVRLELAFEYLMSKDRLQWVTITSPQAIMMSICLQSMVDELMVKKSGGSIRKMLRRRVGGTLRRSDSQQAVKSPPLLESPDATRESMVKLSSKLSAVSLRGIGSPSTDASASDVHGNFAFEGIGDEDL
In words: co-IP.

A further test has as its target T2, GFP-SNX17, Q15036.
T2 chain: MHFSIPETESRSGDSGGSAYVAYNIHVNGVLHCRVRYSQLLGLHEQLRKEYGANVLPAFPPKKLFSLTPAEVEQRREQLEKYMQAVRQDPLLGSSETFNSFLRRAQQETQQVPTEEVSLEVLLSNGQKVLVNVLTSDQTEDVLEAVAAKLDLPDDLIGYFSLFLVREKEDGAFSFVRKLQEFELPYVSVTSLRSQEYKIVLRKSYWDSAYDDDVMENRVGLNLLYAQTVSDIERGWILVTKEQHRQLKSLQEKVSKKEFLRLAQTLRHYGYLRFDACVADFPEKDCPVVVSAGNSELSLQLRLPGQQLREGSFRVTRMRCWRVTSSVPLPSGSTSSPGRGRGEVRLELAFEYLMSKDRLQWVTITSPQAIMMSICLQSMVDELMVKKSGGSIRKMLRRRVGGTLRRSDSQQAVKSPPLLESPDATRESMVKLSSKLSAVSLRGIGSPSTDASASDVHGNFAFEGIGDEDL
Kind of test: co-IP. The conditions noted are these: remark: other sources report otherwise.

No constants are given. Whether binding was seen depends on the method and setting. Binding seen in cells or lysates may run through a third protein. Where a sequence is shown, tags or fusion partners need not be part of it.

“endogenous SNX1 (from UniProt Q13596 1-522)”: in the test with GFP-SNX17, the binding entry is reported as “no binding”.

B1: endogenous SNX5, Q9Y5X3 1-404 (protein)
chain: MAAVPELLQQQEEDRSKLRSVSVDLNVDPSLQIDIPDALSERDKVKFTVHTKTTLPTFQSPEFSVTRQHEDFVWLHDTLIETTDYAGLIIPPAPTKPDFDGPREKMQKLGEGEGSMTKEEFAKMKQELEAEYLAVFKKTVSSHEVFLQRLSSHPVLSKDRNFHVFLEYDQDLSVRRKNTKEMFGGFFKSVVKSADEVLFTGVKEVDDFFEQEKNFLINYYNRIKDSCVKADKMTRSHKNVADDYIHTAACLHSLALEEPTVIKKYLLKVAELFEKLRKVEGRVSSDEDLKLTELLRYYMLNIEAAKDLLYRRTKALIDYENSNKALDKARLKSKDVKLAEAHQQECCQKFEQLSESAKEELINFKRKRVAAFRKNLIEMSELEIKHARNNVSLLQSCIDLFKNN
With B1, in the test with GFP-SNX17, Q15036, the binding entry is “no binding”.
